Experimental data as given in patent US20040143004A1, “Metronomic dosing of taxanes” (priority 2004, published 2004).
Read-outs that look alike come from different tables or passages of the source. Some entries share one result that the patent states for a list of compounds. At least one structure is not confirmed: it was looked up by name or label, or the drawing left a doubt.

System: endothelial cells in MATRIGEL plugs
Conditions: oral

Measured: reduction in endothelial cell number in MATRIGEL plugs vs control

COC(=O)O[C@@]12CO[C@@H]1C[C@H](O)[C@@]1(C)C(=O)[C@H](OC(C)=O)C3=C(C)[C@@H](OC(=O)[C@H](O)[C@@H](NC(=O)OC(C)(C)C)C(C)(C)C)C[C@@](O)([C@@H](OC(=O)c4ccccc4)[C@H]21)C3(C)C [Formula I, 3′-tert-butyl-3′-N-tert-butyloxycarbonyl-4-deacetyl-3′-dephenyl-3′-N-debenzoyl-4-O-methoxycarbonyl-paclitaxel]
greater than 50%: 18 mg/kg | 36 mg/kg | 60 mg/kg (MTD)
